Reference: publication PMC7787666, “BUB-1 targets PP2A:B56 to regulate chromosome congression during meiosis I in C. elegans oocytes” (eLife, 2020)
No constants are given. Whether binding was seen depends on the method and setting. For part of these data: Binding calls can cover weak binding; strength is not graded here.

Legend:
Assay in all cases: fluorescence polarisation; FITC-labelled peptide at 0.5-1 µM, 1:2 serial dilution of PPTR-2; FP buffer (50 mM NaP pH 7.5, 150 mM NaCl, 0.5 mM TCEP); 30 min; 384-well plate, PheraStar FS; both purified
[1] = biological target: T1, BUB-1 LxxIxE motif peptide (FITC-Ahx-…) (C. elegans)
T1 sequence (peptide, FITC-Ahx on the N-terminus): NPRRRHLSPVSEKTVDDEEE

[2] = biological target: T2, LAVA peptide, BUB-1 LxxIxE motif with L282A,V285A (FITC-Ahx-…) (C. elegans)
T2 sequence (peptide, FITC-Ahx on the N-terminus): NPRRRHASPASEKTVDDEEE

[3] = biological target: T3, pBUB-1 LxxIxE motif peptide, phosphorylated at Ser 283 (FITC-Ahx-NPRRRHLph…) (C. elegans)
T3 sequence (peptide, FITC-Ahx on the N-terminus; phosphoserine at 283): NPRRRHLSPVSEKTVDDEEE

- binding [1]: binds
- binding [2]: no binding
- binding [3]: binds
Substance: PPTR-2 (purified recombinant) (C. elegans)
